Entries after “also recorded” stand apart in the source; their conditions may differ.

The series can be described thus: Body weight and plasma total cholesterol and triglyceride levels of treated mice. It counts as in vivo, mouse. The conditions noted are these: comparison of the 3 groups (vehicle, 4-HOBA, 2-HOBA), western diet 16 weeks. On the procedure: Mice: Ldlr^−/− and WT on C57BL/6 background mice were obtained from the Jackson Laboratory. Animal protocols were performed according to the regulations of Vanderbilt University's Institutional Animal Care and Usage Committee. Mice were maintained on chow or a Western-type diet containing 21% milk fat and 0.15% cholesterol (Teklad). Eight week old, female mice were pretreated mice with vehicle alone (Water) or containing either 1 g/L of 4-HOBA or 1 g/L of 2-HOBA. After two weeks, the mice continued to receive treatment and were administered a Western diet for 16 weeks to induce hypercholesterolemia and atherosclerosis.

`NCc1ccccc1O` [2-HOBA, 2-hydroxybenzylamine]: the “plasma total cholesterol levels” value was “not significantly different; also recorded: did not impact” and the plasma triglyceride levels entry is “not significantly different”.

With `NCc1ccc(O)cc1` [4-HOBA, 4-hydroxybenzylamine, reference compound], the “plasma total cholesterol levels” value is “not significantly different” and the plasma triglyceride levels entry is recorded as “not significantly different”.

The record behind these values is patent US11389414B2, “Methods for treating atherosclerosis with gamma-ketoaldehyde scavengers” (Vanderbilt University, priority 2017, dated 2022).
